Laboratory results published in PubChem BioAssay AID540275 (National Center for Advancing Translational Sciences (NCATS), 2011).
Among all 320,000 compounds or so, about 620 (0.19%) were called active. The inconclusive results got no clear call from the source; some entries with a clear call stand among them for comparison. No stated cut-off is given here; in the data, active means activation above about 80%; inconclusive means between about 30% and that limit; inactive means weaker than that.
Further: 0% is about no effect.

Amino acid sequences for entries named in this document (tags omitted).
UniProt Q8NER1, whole entry, looked up: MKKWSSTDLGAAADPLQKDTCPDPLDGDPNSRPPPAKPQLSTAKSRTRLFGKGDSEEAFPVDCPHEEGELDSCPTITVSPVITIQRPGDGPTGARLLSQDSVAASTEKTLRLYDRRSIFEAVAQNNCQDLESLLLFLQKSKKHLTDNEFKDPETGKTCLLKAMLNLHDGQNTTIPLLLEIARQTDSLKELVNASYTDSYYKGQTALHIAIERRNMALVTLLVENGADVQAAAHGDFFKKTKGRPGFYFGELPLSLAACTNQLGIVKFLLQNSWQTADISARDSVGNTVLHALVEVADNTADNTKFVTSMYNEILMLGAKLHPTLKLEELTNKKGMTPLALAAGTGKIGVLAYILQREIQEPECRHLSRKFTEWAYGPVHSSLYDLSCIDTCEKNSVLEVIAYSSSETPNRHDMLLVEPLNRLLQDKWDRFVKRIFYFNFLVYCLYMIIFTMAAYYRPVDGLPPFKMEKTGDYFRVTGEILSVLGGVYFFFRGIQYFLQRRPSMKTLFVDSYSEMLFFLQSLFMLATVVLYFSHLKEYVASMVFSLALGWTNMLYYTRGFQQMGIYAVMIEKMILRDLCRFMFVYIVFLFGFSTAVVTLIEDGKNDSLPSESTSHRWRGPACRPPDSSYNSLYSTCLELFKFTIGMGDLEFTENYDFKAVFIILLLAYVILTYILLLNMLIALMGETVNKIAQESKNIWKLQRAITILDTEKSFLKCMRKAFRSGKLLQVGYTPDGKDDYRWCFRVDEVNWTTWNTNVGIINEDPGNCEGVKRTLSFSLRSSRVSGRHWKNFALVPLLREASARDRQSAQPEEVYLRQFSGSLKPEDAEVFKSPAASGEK

What follows are compounds tested against Transient receptor potential cation channel subfamily V member 1 (Homo sapiens) (UniProt Q8NER1) (assay: HTS Assay for Compounds that Act as Agonists of the Vanilloid Receptor 1). Conditions: TRPV1-expressing cells, Fluo-8 calcium influx, agonist mode; at 8.33 µM, stronger effect = higher value.
How it was run: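 TRPV1-expressing cells were cultured overnight at 35.5C and loaded with Fluo-8 calcium dye for 40 to 90 min at room temperature. After a 10 s baseline, compound was added and calcium influx was read kinetically for 3 min (ex 480/em 520 nm).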
In the case of `COc1ccc(C(=O)Nc2ccc(C3(C#N)CCCC3)cc2)cc1`, the activation is reported as active: 89.3%.
For `O=C1N=C(N2CCN(c3ccccc3)CC2)S/C1=C/c1cccs1`, the activation was inconclusive: 33.1%.
For `COc1ccc(CCNc2ncnc3c2nnn3Cc2ccccc2)cc1OC`, the activation was inconclusive: 35.7%.
`CC(C)(Oc1ccc(Cl)cc1)C(=O)NC1CCN(Cc2ccccc2)CC1` was tested, and the activation was inconclusive: 36.8%.
With `O=C(/C=C/c1ccccc1)Nc1cccnc1` the activation was inconclusive: 78.4%.
`COc1ccc(S(=O)(=O)N2CCCC(C(=O)NCCC3=CCCCC3)C2)cc1` (stereo not given) was tested, and the activation was inconclusive: 56.1%.
With `CCN(CC)C(=O)CSc1nc(-c2ccc(C)cc2)nc2c1COC(C)(C)C2` the activation was inconclusive: 47.1%.
With `CCOC(=O)c1ccc(NC(=O)NCc2ccccc2)cc1` the activation was inconclusive: 66.5%.
With `COc1cc(/C=C/C(=O)O)ccc1OCc1ccccc1C#N` the activation was inactive: -2.89%.
In the case of `CC(C)(C)c1ccc(OCC(=O)NNC(=O)Cc2cccs2)cc1`, the activation is reported as inconclusive: 63.6%.
`Oc1ccccc1-c1nc2ccccc2nc1-c1ccccc1` was tested, and the activation was inconclusive: 72.3%.
With `O=[N+]([O-])c1cccc2c(N3CCCC3)ccnc12` the activation was inactive: -3.51%.
For `O=C(NCCc1ccccc1)c1c(F)cccc1F`, the activation was inconclusive: 32%.
`C1CCN=C(Nc2nc3c(s2)CCCC3)CC1` was tested, and the activation was inconclusive: 63.8%.
With `Cc1nn(C)c(C)c1N1C(=O)c2cccc3c(Br)ccc(c23)C1=O` the activation was inactive: 0.363%.
For `Cc1onc(-c2c(F)cccc2Cl)c1C(=O)N1CCOC12CCCCC2`, the activation was inconclusive: 46.8%.
`COc1cccc(NS(=O)(=O)c2ccc3[nH]cc(C(=O)NCCC(C)C)c(=O)c3c2)c1` was tested, and the activation was inconclusive: 48.4%.
For `COc1ccc(/C=N/NC(=O)c2ccncc2)cc1CN1CCCc2ccccc21`, the activation was inconclusive: 57%.
`CCCCc1ccc(NC(=O)NCc2ccccn2)cc1` was tested, and the activation was inconclusive: 60.7%.
`O=C(Nc1cccnc1)c1cc2cc(Br)ccc2o1` was tested, and the activation was inconclusive: 64.4%.
For `NC(=O)C1(N2CCCCC2)CCN(c2nc(-c3ccccc3)cs2)CC1`, the activation was inconclusive: 32.8%.
For `S=C(NCC1CCCO1)N1CCN(c2ccccc2)CC1` (stereo not given), the activation was inconclusive: 37.6%.
For `CC(C)NC(=O)N1CCCN(c2nc3ccc(Cl)cc3s2)CC1`, the activation was inconclusive: 59.9%.
In the case of `CC(=O)c1c(C)[nH]c(C(=O)COC(=O)CCCOc2ccccc2)c1C`, the activation is reported as inconclusive: 41.5%.
For `CC1(C)C2CCC(C2)C1(C)N=C1OC(CCl)CS1` (stereo not given), the activation was inconclusive: 37.5%.
For `CCCCOc1ccc(C(=O)N/C(=C\c2cccc([N+](=O)[O-])c2)C(=O)OCc2ccco2)cc1`, the activation was inactive: 0.778%.
With `Cc1cccc(NS(=O)(=O)c2cccc(C(=O)NCC3(N4CCCCC4)CCCCC3)c2)c1` the activation was inactive: -4.53%.
`COc1ccc(-c2csc3nc(C)nc(N4CCN(C(C)=O)CC4)c23)cc1OC` was tested, and the activation was inactive: -1.41%.
For `Cc1cc(C)c(OCC(=O)Nc2ccccc2N2CCOCC2)c(C)c1`, the activation was inconclusive: 48.3%.
`CCOC(=O)c1cc(-c2ccc(OC)cc2)nc2c1c(C)nn2CCC(N)=S` was tested, and the activation was inconclusive: 37.1%.
In the case of `O=C(O)CN1C(=O)/C(=C/c2ccccc2Cl)Oc2ccccc21`, the activation is reported as inactive: 0.369%.
With `CCN1C(=O)C(CC(=O)Nc2ccc(OC)cc2)N(CCc2ccc(F)cc2)C1=S` (stereo not given) the activation was inactive: 10.9%.
`O=C(NNC(=O)c1ccc(Br)s1)c1csc(N2CCOCC2)n1` was tested, and the activation was inconclusive: 50%.
For `COc1ccc(OC(C)C(=O)Nc2cccc(F)c2)cc1` (stereo not given), the activation was inconclusive: 34.5%.
With `O=C(CSc1ccc2ccccc2c1)N1CCN(c2ccc(O)cc2)CC1` the activation was inactive: 19.7%.
With `CCN(CC)C(=O)c1ccc2nc(-c3ccccc3)c(-c3ccccc3)nc2c1` the activation was inactive: 22.9%.
`O=C(c1cccc(S(=O)(=O)NCc2ccccc2)c1)N1CCN(c2cccc(C(F)(F)F)c2)CC1` was tested, and the activation was inconclusive: 43.5%.
In the case of `Cc1nc2ccccc2c(=O)n1NC(=O)C1CCC(C(C)(C)C)CC1` (stereo not given), the activation is reported as active: 81.6%.
In the case of `Cc1cc2c(NC(=O)Nc3ccccc3)cccc2nn1`, the activation is reported as active: 86.6%.
In the case of `O=C(/C=C/c1ccc(Cl)cc1)Nn1c(-c2cccs2)nc2ccccc2c1=O`, the activation is reported as inconclusive: 40%.
For `CCOC(=O)Cc1csc(NC(=O)CSc2nnc(-c3ccc(C)cc3)o2)n1`, the activation was inactive: -0.304%.
In the case of `Cc1ccc2cc(C#N)c(N3CCN(C(=O)c4ccccc4)CC3)nc2c1`, the activation is reported as inconclusive: 40.5%.
In the case of `N#Cc1ccc(C2=CC(=O)C[C@H](c3ccc(F)cc3)C2)cc1`, the activation is reported as inconclusive: 32.4%.
`O=C(CCCc1c[nH]c2ccccc12)NCc1ccccc1C(F)(F)F` was tested, and the activation was inconclusive: 52.6%.
For `O=C(NCCN1CCN(c2cccc(Cl)c2)CC1)Nc1ccccc1`, the activation was inconclusive: 59.6%.
